These are yes or no findings as the source states them, for the method shown. Some results given as binding are weak or reduced against the parent protein; the word gives no strength. Where a sequence is shown, tags or fusion partners need not be part of it.
Biological target: T1, Human N-terminally GST-tagged VAP-A (vesicle-associated membrane protein-associated protein A) (human) (UniProt Q9P0L0)
T1 sequence: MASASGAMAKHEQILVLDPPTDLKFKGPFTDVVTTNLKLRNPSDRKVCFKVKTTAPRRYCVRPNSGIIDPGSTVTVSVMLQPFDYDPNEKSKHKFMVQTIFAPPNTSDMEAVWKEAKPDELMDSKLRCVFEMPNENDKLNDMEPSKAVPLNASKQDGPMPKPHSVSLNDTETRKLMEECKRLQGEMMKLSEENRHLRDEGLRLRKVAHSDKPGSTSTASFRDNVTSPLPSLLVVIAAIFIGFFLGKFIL
Test: pull-down; 0.5 uM His-bGLTP, alone (CTRL) or pre-incubated with 5 uM glycolipid (GlcCer of different acyl chain lengths, or POPC; in DMSO) in 1x PBS pH 7.4 for 45 min at 37°C; 2.5 uM GST-VAP-A added, 30 min at 37°C; captured on Glutathione Sepharose 4 Fast Flow beads 1 h at 4°C, washed with 20 mM Tris-HCl, 150 mM NaCl, 1 mM EDTA, 10% glycerol, 0.1% Triton X-100, pH 7.4; Western blot with anti-GLTP and anti-GST; both purified

B1: Bovine His-GLTP (glycolipid transfer protein) (protein, UniProt P68265 1-209)
chain: MALLAEHLLRPLPADKQIETGPFLEAVSHLPPFFDCLGSPVFTPIKADISGNITKIKAVYDTNPTKFRTLQNILEVEKEMYGAEWPKVGATLALMWLKRGLRFIQVFLQSICDGERDENHPNLIRVNATKAYEMALKKYHGWIVQKIFQAALYAAPYKSDFLKALSKGQNVTEEECLEKVRLFLVNYTATIDVIYEMYTRMNAELNYKV
B1 was tested, and the binding was “binds”.
